In PubChem BioAssay AID493175 (National Center for Advancing Translational Sciences (NCATS), 2011):
Inconclusive results, whose numbers are uncertain, are shown with a selection of clear calls. A call without a number means that no potency is given here. Potencies beside an inconclusive call are fits to weak or partial responses and may not hold up. The source made the active and inactive calls. Calls follow the shape of the dose curve; as a rule, active = well fitted curve in the direction sought with a large enough effect; inconclusive = small, poorly fitted or top-dose-only effect, or another doubt; inactive = no such curve, though single readings can be large or run the other way.

Amino acid sequences for entries named in this document (tags omitted).
UniProt P08659, whole entry, looked up: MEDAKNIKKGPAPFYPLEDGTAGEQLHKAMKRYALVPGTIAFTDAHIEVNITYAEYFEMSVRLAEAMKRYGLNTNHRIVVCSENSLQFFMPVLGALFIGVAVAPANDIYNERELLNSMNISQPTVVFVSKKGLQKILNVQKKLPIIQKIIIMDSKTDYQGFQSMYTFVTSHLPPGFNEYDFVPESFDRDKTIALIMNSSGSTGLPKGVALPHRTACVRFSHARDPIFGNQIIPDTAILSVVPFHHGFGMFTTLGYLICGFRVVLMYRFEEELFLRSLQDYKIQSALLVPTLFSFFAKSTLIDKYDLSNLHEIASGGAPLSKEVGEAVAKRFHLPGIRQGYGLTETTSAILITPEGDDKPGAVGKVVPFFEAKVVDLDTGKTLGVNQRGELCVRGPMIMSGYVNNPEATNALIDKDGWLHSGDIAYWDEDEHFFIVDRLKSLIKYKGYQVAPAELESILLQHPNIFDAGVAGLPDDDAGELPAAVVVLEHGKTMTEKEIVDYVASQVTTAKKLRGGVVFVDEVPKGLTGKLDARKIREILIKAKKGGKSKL

Target: Luciferin 4-monooxygenase (Photinus pyralis) (UniProt P08659)
Assay: miR-21 counterscreen using purified firefly luciferase
Details: purified P. pyralis luciferase, luminescence; series mostly up to 57.5 µM
From the text: MLPCN Grant: 1 R21 NS059478-01 Assay Provider: Qihong Huang, The Wistar Institute NCGC Assay Overview: MicroRNAs (miRNAs) are endogenously encoded small (~20-25 nucleotides), nonprotein-coding RNAs that are involved in post-transcriptional repression of target messenger RNAs (mRNAs) (Le and Hannon, 2004). Estimated to be involved in the regulation of 30% of all protein-coding mRNAs (Filipowicz et al., 2008), miRNAs play a significant role in many biological processes including cellular differentiation and tissue development (Ghildiyal and Zamore, 2009). […] Compounds active in the miR-21 FLuc assay were clustered using Leadscope and active chemical series were prioritized based on chemical properties, potential for medicinal chemistry optimization, and SAR. Within each chemical series, representative compounds were re-acquired to test for activity in a secondary assay based on the quality of their CRC, efficacy, and potency. This secondary assay to determine if compounds active in the miR-21 FLuc assay were just luciferase inhibitors. Compounds found active in both the miR-21 FLuc and purified FLuc assays are considered as false positives. Keywords: NIH Roadmap, MLPCN, MLSMR, qHTS, miR-21, firefly luciferase, FLuc, miRNA.
NCGC Assay Protocol Summary: Reagents: 50mM Tris acetate, pH 7.5; 10mM Mg acetate; 10uM D-luciferin (Sigma #L9504); 10uM ATP; 0.01% Tween-20; 0.05% BSA; 10nM P. pyralis luciferase (Sigma #L9506) Control compounds used were two known firefly luciferase inhibitors (compounds (2) and (5) in Auld et al., 2010), and DMSO. Assay Summary: Three microliters containing firefly luciferase substrates in buffer (final concentrations: 50mM Tris acetate, pH 7.5, 10mM Mg acetate, 0.01% Tween-20, 0.05% BSA, 10uM D-luciferin, and 10uM ATP) are dispensed into each well of a Greiner white, solid-bottom 1536-well format plate using a flying reagent dispenser (FRD). These assay plates were then treated with 23nL of compound or DMSO using a Kalypsys pin tool, which allows for delivery of a 6-point interplate titration of each compound to the assay plate (quantitative HTS), with a final compound concentrations ranging from approximately 60 µM to 7pM. One microliter of firefly luciferase in […] Tris-acetate buffer was then delivered by FRD to each well for a final enzyme concentration of 10nM. Luciferase activity was then measured using a ViewLux CCD imager (PerkinElmer), with an average exposure time of 2-30 seconds (2X binning, medium/high gain).

Row | Compound | Potency
1 | COc1cc(Cl)c(C)cc1Nc1c2c(nc3ccccc13)CCC2 | inactive
2 | CSc1nsc(SCC(=O)Nc2ccc(F)cc2F)n1 | inactive
3 | Cc1ccc(-c2nsc(SCC(=O)Nc3ccc4c(c3)OCO4)n2)cc1 | inactive
4 | CCc1ccc(-n2nnc(-c3nc(-c4cccs4)no3)c2N)cc1 | inconclusive: 757 nM [inhibitor, full curve]
5 | CCc1cccc(-n2nnc(-c3nsc(NC(=O)c4cccs4)n3)c2C)c1 | inconclusive: 2390 nM [inhibitor, full curve]
6 | O=C(COc1ccccc1F)Nc1ccc(-c2nc3ccccc3s2)cc1 | inconclusive: 13500 nM [inhibitor, partial curve, poor fit]
7 | O=C(Nc1nnc(S(=O)(=O)N2CCCC2)s1)c1ccc(F)cc1 | inactive
8 | Cc1c(-c2nsc(NC(=O)c3cccs3)n2)nnn1-c1ccc(F)cc1 | inconclusive: 1200 nM [inhibitor, full curve]
9 | Clc1ccc(-n2ncc3c(NCc4ccccn4)ncnc32)cc1 | inconclusive: 8490 nM [inhibitor, partial curve]
10 | Cc1c(-c2nnc(SCC(=O)Nc3ccccc3F)o2)nnn1-c1ccc(F)cc1 | inactive
11 | O=C(Nc1ccc(-c2nc3ccccc3[nH]2)cc1)c1ccc2c(c1)OCO2 | inactive
12 | C[C@]12CC[C@H]3C(=CCc4cc(O)ccc43)[C@@H]1CCC2=O | inactive

2 records drawn at random from the list so far, as already listed:
Row | Compound | Potency
5 | CCc1cccc(-n2nnc(-c3nsc(NC(=O)c4cccs4)n3)c2C)c1 | inconclusive: 2390 nM [inhibitor, full curve]
3 | Cc1ccc(-c2nsc(SCC(=O)Nc3ccc4c(c3)OCO4)n2)cc1 | inactive
